Structures can show the parent of a compound that is named as a salt. The list shows a part of the results. Single values are uncertain, as repeats are few or missing.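 The three strains are clinical Candida auris isolates from the CDC resistance isolate bank, from clades III, IV and I, grown in RPMI-1640 at 35°C. Growth is background-corrected OD600 relative to vehicle-only wells on the same plate; a hit meant over 50% inhibition in at least two strains plus a plate-corrected B-score above 0.1.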
How the values were obtained:
Assay in all cases: growth relative to vehicle control (OD600 ratio) (fraction); higher = less inhibition
Details in all cases: 24 h
C. auris AR-384 = tested on: C. auris AR-384
C. auris AR-386 = tested on: C. auris AR-386
C. auris AR-387 = tested on: C. auris AR-387

O=C(OCc1ccccc1)c1ccccc1 [Benzyl benzoate]
growth (C. auris AR-384; 1 µM): 0.77
growth (C. auris AR-384; 10 µM): 0.7
growth (C. auris AR-386; 1 µM): 0.77
growth (C. auris AR-386; 10 µM): 0.62
growth (C. auris AR-387; 1 µM): 0.53
growth (C. auris AR-387; 10 µM): 0.53

COc1cc(NS(=O)(=O)c2ccc(N)cc2)nc(OC)n1 [Sulphadimethoxine]
growth (C. auris AR-384; 1 µM): 0.95
growth (C. auris AR-384; 10 µM): 0.92
growth (C. auris AR-386; 1 µM): 0.74
growth (C. auris AR-386; 10 µM): 1.14
growth (C. auris AR-387; 1 µM): 0.97
growth (C. auris AR-387; 10 µM): 0.96

CCC[C@@H]1C[C@@H](C(=O)N[C@@H]([C@H]2O[C@H](SC)[C@H](OP(=O)(O)O)[C@@H](O)[C@H]2O)[C@H](C)Cl)N(C)C1 [Clindamycin Phosphate]
growth (C. auris AR-384; 1 µM): 0.9
growth (C. auris AR-384; 10 µM): 1.14
growth (C. auris AR-386; 1 µM): 1
growth (C. auris AR-386; 10 µM): 0.99
growth (C. auris AR-387; 1 µM): 0.86
growth (C. auris AR-387; 10 µM): 1.05

C[C@@H](c1nc(-c2ccc(C#N)cc2)cs1)[C@](O)(Cn1cncn1)c1cc(F)ccc1F [Isavuconazole]
growth (C. auris AR-384; 1 µM): 0.41
growth (C. auris AR-384; 10 µM): 0.29
growth (C. auris AR-386; 1 µM): 0.21
growth (C. auris AR-386; 10 µM): 0.01
growth (C. auris AR-387; 1 µM): 0.03
growth (C. auris AR-387; 10 µM): 0.01

CC(C)[C@H](N)C(=O)OCCOCn1cnc2c(=O)nc(N)[nH]c21 [Valaciclovir HCl]
growth (C. auris AR-384; 1 µM): 1.04
growth (C. auris AR-384; 10 µM): 0.88
growth (C. auris AR-386; 1 µM): 1.36
growth (C. auris AR-386; 10 µM): 0.74
growth (C. auris AR-387; 1 µM): 1.04
growth (C. auris AR-387; 10 µM): 0.97

CC(=O)O[C@]1(C(C)=O)CC[C@H]2[C@@H]3C=C(Cl)C4=CC(=O)[C@@H]5C[C@@H]5[C@]4(C)[C@H]3CC[C@@]21C [Cyproterone Acetate]
growth (C. auris AR-384; 1 µM): 1.04
growth (C. auris AR-384; 10 µM): 0.91
growth (C. auris AR-386; 1 µM): 0.87
growth (C. auris AR-386; 10 µM): 0.95
growth (C. auris AR-387; 1 µM): 0.81
growth (C. auris AR-387; 10 µM): 0.8

CN1CCc2nc(C(=O)N[C@@H]3C[C@@H](C(=O)N(C)C)CC[C@@H]3NC(=O)C(=O)Nc3ccc(Cl)cn3)sc2C1 [Edoxaban]
growth (C. auris AR-384; 1 µM): 0.87
growth (C. auris AR-384; 10 µM): 0.69
growth (C. auris AR-386; 1 µM): 0.84
growth (C. auris AR-386; 10 µM): 0.66
growth (C. auris AR-387; 1 µM): 0.74
growth (C. auris AR-387; 10 µM): 0.72

NC(=O)Cc1cccc(C(=O)c2ccccc2)c1N [Nepafenac]
growth (C. auris AR-384; 1 µM): 0.73
growth (C. auris AR-384; 10 µM): 0.62
growth (C. auris AR-386; 1 µM): 0.78
growth (C. auris AR-386; 10 µM): 1.06
growth (C. auris AR-387; 1 µM): 1.09
growth (C. auris AR-387; 10 µM): 0.85

CN1C(C(=O)Nc2ccccn2)=C(O)c2sc(Cl)cc2S1(=O)=O [Lornoxicam]
growth (C. auris AR-384; 1 µM): 1.19
growth (C. auris AR-384; 10 µM): 1.32
growth (C. auris AR-386; 1 µM): 1.25
growth (C. auris AR-386; 10 µM): 1.25
growth (C. auris AR-387; 1 µM): 1.61
growth (C. auris AR-387; 10 µM): 1.53

CC1(C)[C@@H](OC(=O)CCC(=O)O)CC[C@]2(C)[C@H]3C(=O)C=C4[C@@H]5C[C@@](C)(C(=O)O)CC[C@]5(C)CC[C@@]4(C)[C@]3(C)CC[C@@H]12 [Carbenoxolone Sodium]
growth (C. auris AR-384; 1 µM): 0.98
growth (C. auris AR-384; 10 µM): 0.85
growth (C. auris AR-386; 1 µM): 0.99
growth (C. auris AR-386; 10 µM): 0.8
growth (C. auris AR-387; 1 µM): 0.78
growth (C. auris AR-387; 10 µM): 1

COCC[n+]1c2c(n(Cc3cnccn3)c1C)C(=O)c1ccccc1C2=O [YM155 (Sepantronium Bromide)]
growth (C. auris AR-384; 1 µM): 1.32
growth (C. auris AR-384; 10 µM): 0.9
growth (C. auris AR-386; 1 µM): 0.71
growth (C. auris AR-386; 10 µM): 0.83
growth (C. auris AR-387; 1 µM): 1.12
growth (C. auris AR-387; 10 µM): 0.82

CCCc1nc2c(C)cc(-c3nc4ccccc4n3C)cc2n1Cc1ccc(-c2ccccc2C(=O)O)cc1 [Telmisartan]
growth (C. auris AR-384; 1 µM): 1.34
growth (C. auris AR-384; 10 µM): 1.12
growth (C. auris AR-386; 1 µM): 0.96
growth (C. auris AR-386; 10 µM): 0.87
growth (C. auris AR-387; 1 µM): 0.87
growth (C. auris AR-387; 10 µM): 0.74

Cc1c(N(C)C)c(=O)n(-c2ccccc2)n1C [Amidopyrine]
growth (C. auris AR-384; 1 µM): 0.87
growth (C. auris AR-384; 10 µM): 0.84
growth (C. auris AR-386; 1 µM): 0.61
growth (C. auris AR-386; 10 µM): 0.85
growth (C. auris AR-387; 1 µM): 0.83
growth (C. auris AR-387; 10 µM): 0.75

CNC(=O)c1ccc(N2C(=S)N(c3ccc(C#N)c(C(F)(F)F)c3)C(=O)C2(C)C)cc1F [Enzalutamide (MDV3100)]
growth (C. auris AR-384; 1 µM): 0.95
growth (C. auris AR-384; 10 µM): 0.44
growth (C. auris AR-386; 1 µM): 0.53
growth (C. auris AR-386; 10 µM): 0.59
growth (C. auris AR-387; 1 µM): 0.83
growth (C. auris AR-387; 10 µM): 0.71

CCOc1cc([C@@H](CS(C)(=O)=O)N2C(=O)c3cccc(NC(C)=O)c3C2=O)ccc1OC
growth (C. auris AR-384; 1 µM): 1.19
growth (C. auris AR-384; 10 µM): 1.34
growth (C. auris AR-386; 1 µM): 1.18
growth (C. auris AR-386; 10 µM): 1.33
growth (C. auris AR-387; 1 µM): 1.04
growth (C. auris AR-387; 10 µM): 1.16

CC(C)(Oc1ccc(C(=O)c2ccc(Cl)cc2)cc1)C(=O)O [Fenofibric acid]
growth (C. auris AR-384; 1 µM): 0.68
growth (C. auris AR-384; 10 µM): 0.87
growth (C. auris AR-386; 1 µM): 0.81
growth (C. auris AR-386; 10 µM): 0.77
growth (C. auris AR-387; 1 µM): 0.66
growth (C. auris AR-387; 10 µM): 0.85

O=C(CCCN1CCC(O)(c2ccc(Cl)cc2)CC1)c1ccc(F)cc1 [Haloperidol]
growth (C. auris AR-384; 1 µM): 0.99
growth (C. auris AR-384; 10 µM): 0.79
growth (C. auris AR-386; 1 µM): 0.73
growth (C. auris AR-386; 10 µM): 0.94
growth (C. auris AR-387; 1 µM): 0.78
growth (C. auris AR-387; 10 µM): 1.21

N=C(N)NC(=N)NCCc1ccccc1 [Phenformin HCl]
growth (C. auris AR-384; 1 µM): 0.78
growth (C. auris AR-384; 10 µM): 0.6
growth (C. auris AR-386; 1 µM): 1.01
growth (C. auris AR-386; 10 µM): 1
growth (C. auris AR-387; 1 µM): 0.84
growth (C. auris AR-387; 10 µM): 0.73

N#Cc1ccc(C(c2ccc(C#N)cc2)n2cncn2)cc1 [Letrozole]
growth (C. auris AR-384; 1 µM): 0.77
growth (C. auris AR-384; 10 µM): 0.48
growth (C. auris AR-386; 1 µM): 0.57
growth (C. auris AR-386; 10 µM): 0.69
growth (C. auris AR-387; 1 µM): 0.81
growth (C. auris AR-387; 10 µM): 0.83

COC(=O)Nc1nc2cc(C(=O)c3ccc(F)cc3)ccc2[nH]1 [Flubendazole]
growth (C. auris AR-384; 1 µM): 0.8
growth (C. auris AR-384; 10 µM): 0.81
growth (C. auris AR-386; 1 µM): 0.91
growth (C. auris AR-386; 10 µM): 1.03
growth (C. auris AR-387; 1 µM): 0.9
growth (C. auris AR-387; 10 µM): 0.75

CCNC(=O)[C@@H]1CCCN1C(=O)[C@H](CCCNC(=N)N)NC(=O)[C@H](CC(C)C)NC(=O)[C@@H](CC(C)C)NC(=O)[C@H](Cc1ccc(O)cc1)NC(=O)[C@H](CO)NC(=O)[C@H](Cc1c[nH]c2ccccc12)NC(=O)[C@H](Cc1c[nH]cn1)NC(=O)[C@@H]1CCC(=O)N1 [Leuprolide Acetate]
growth (C. auris AR-384; 1 µM): 1.27
growth (C. auris AR-384; 10 µM): 1.22
growth (C. auris AR-386; 1 µM): 1.76
growth (C. auris AR-386; 10 µM): 1.26
growth (C. auris AR-387; 1 µM): 1.78
growth (C. auris AR-387; 10 µM): 1.24

C[C@@H](O[C@H]1OCCN(Cc2n[nH]c(=O)[nH]2)[C@H]1c1ccc(F)cc1)c1cc(C(F)(F)F)cc(C(F)(F)F)c1 [Aprepitant]
growth (C. auris AR-384; 1 µM): 1.05
growth (C. auris AR-384; 10 µM): 1.18
growth (C. auris AR-386; 1 µM): 0.98
growth (C. auris AR-386; 10 µM): 1.19
growth (C. auris AR-387; 1 µM): 0.76
growth (C. auris AR-387; 10 µM): 1.01

NC(=O)NO [Hydroxyurea]
growth (C. auris AR-384; 1 µM): 1.04
growth (C. auris AR-384; 10 µM): 0.77
growth (C. auris AR-386; 1 µM): 0.92
growth (C. auris AR-386; 10 µM): 1.12
growth (C. auris AR-387; 1 µM): 1
growth (C. auris AR-387; 10 µM): 1.03

Reference: the supplement of paper PMC10470496
